Test results published in PubChem BioAssay AID1347423 (Functional Genomics Laboratory (NCATS/FGL), 2020).
The whole screen tested about 52,000 sequences, of which about 210 (0.4%) were called active.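 How the source made its calls: active means gene whose silencing raises cell survival under the drug, median off-target-corrected z-score across its silencing RNAs 2 or more; inactive means the rest.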 Some of the results follow.

assay: Resistance to Poly (ADP-Ribose) Polymerase inhibitor: Gene Identification via Genome-wide siRNA Screen; details: mouse BRCA2 R2336H ES cells, olaparib, CellTiter-Glo viability; active compounds read high
Procedure, shortened: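 Mouse BRCA2 R2336H ES cells were reverse-transfected with siRNA (20 nM final), treated at 48 h with 500 nM olaparib, and read by CellTiter-Glo after 72 h. Scores: MAD-based z per siRNA, median per gene, seed off-target correction.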

Row | Sequence | z-score
1 | GCGCAAAAAGGGAUCUAAGTT against Ogg1 | inactive: 0.186
2 | GCGUAAAGUAAAACAGCUUTT against 2610033H07Rik | inactive: -1.47
3 | CGGAUGAUCGAUUUAAAGUTT against Gm67 | inactive: -1.49
4 | GGCUGUAAAUAAAUGCCUUTT against Cdc25c | inactive: -2.15
5 | GGACAAAUACCACAAGUUGTT against 4732471D19Rik | inactive: 0.0292
6 | GCAUAGCAGAGCUGUGCUATT against Aprt | inactive: -0.403
7 | CCGAGGGUACCUAAGGUUUTT against Ell3 | inactive: -1.14
8 | GCUAGGUUCCAGCAAUUGCTT against Zfp393 | inactive: 0.743
9 | GGCCAUAAAACAUAAGCUATT against Tmem17 | inactive: 1.1
10 | GCAUCACACCACAGAAAGUTT against Hmgcll1 | inactive: -2.48
11 | CCAAAUGAAAUUCAUUCUCTT against Ptger2 | inactive: 0.312
12 | GGAGGAGAACAGCAAUCUUTT against Speer4d | inactive: -2.4
13 | GGAAACGAAGAGGAAGAAUTT against Ddit3 | inactive: -0.803
14 | UUGGCUGCAUUAUCAUGAGTT against Olfr311 | inactive: 0.638
15 | GGGAACAUAAUGGAAAUGUTT against Il1f6 | inactive: -0.44
16 | GGGCGUACUCAACGUGAUUTT against BC013481 | inactive: -0.5
17 | GCAUAAUGUUACCUAAGUCTT against Ifngr1 | inactive: -0.726
18 | CGUGGAAAAGCUAUGUGCGTT against Lif | inactive: 1.44
19 | GGUCCAGCUAUCCUUGACCTT against Hgfac | inactive: 0.231
20 | GGUUCUUAAACUCAAAUCUTT against Alox12b | inactive: 1.29
21 | GGUAUUGUGGAAAUUCCCATT against BC042698 | inactive: 0.0792
22 | GGAAAAGCCUCAUUAGUUUTT against 5730420B22Rik | inactive: 0.68
23 | GCAGCAGACAAUUAUGAAUTT against E130115E03Rik | inactive: -0.804
24 | GCUACAGUUCAGGGACUUGTT against Leng9 | inactive: -0.656
25 | GCCGUACAACAAUGAAUAUTT against Pcdh20 | inactive: -1.22
26 | GGGAGGAUUCAUGUUGUGUTT against Morc | inactive: -2.26

In another format: entries from further up
Row	Sequence	z-score
4	GGCUGUAAAUAAAUGCCUUTT against Cdc25c	inactive: -2.15
5	GGACAAAUACCACAAGUUGTT against 4732471D19Rik	inactive: 0.0292
6	GCAUAGCAGAGCUGUGCUATT against Aprt	inactive: -0.403
7	CCGAGGGUACCUAAGGUUUTT against Ell3	inactive: -1.14
8	GCUAGGUUCCAGCAAUUGCTT against Zfp393	inactive: 0.743
9	GGCCAUAAAACAUAAGCUATT against Tmem17	inactive: 1.1

(continued)

Row | Sequence | z-score
27 | GGACCGCUUCAAAACUGGUTT against Hcrtr2 | inactive: -0.707
28 | CCAGCGAUCUUCCCAUUCUTT against Ccr8 | inactive: 0.737
29 | GGUCAUCUUCCUUUUUGCUTT against Olfr1501 | inactive: 0.426
30 | GGCAUUUCUUCUUCUUCACTT against Ms4a3 | inactive: -0.367
31 | CCUGCUAAUUUCAAGUGUATT against Abcg3 | inactive: -0.67
32 | GGCUAGAGUUCACGUUGGATT against Mrps26 | inactive: -0.479
33 | GGUAGAGGCAAGAAAUUCATT against Slc5a5 | inactive: -0.579
34 | GGAACUCUUUUCCUAAAAUTT against Slco1a5 | inactive: 0.824
35 | CCACAUUUUGGCCUAUCAGTT against Mtx2 | inactive: 1.11
36 | GACUCCCAGCUGGCUAUGATT against Ifna9 | inactive: -0.81
37 | GGUACUCACAUCUCCAAAGTT against BC049807 | inactive: -0.778
38 | GCUGUAACCAACAUACCUCTT against 6230427J02Rik | inactive: 1.38
39 | GGUGAAAGACCACAAAUUCTT against Prkca | inactive: -0.0256
40 | GGAAAAGCUUCUAAAGGAGTT against Tnfaip3 | inactive: -0.295
41 | CCUUACUCAAGAUCCUGCUTT against Olfr1243 | inactive: 0.202
42 | CCAUUUUACACCUCAAUCATT against 2310009E04Rik | inactive: -0.624
43 | GGGACAGGUUGUUCAGUUCTT against Dbt | inactive: -1.54
44 | CGAAACCUGCUUAAAACAATT against E330016A19Rik | inactive: -0.469
45 | GGCCCAGAUUUCUUAUAUATT against Tnfrsf19 | inactive: -0.793
46 | GGCAGUUUCUUCUUCCAAATT against Hist1h1a | inactive: -1.74
47 | GGCUUCACAAGCCAAAAGUTT against Gabrg2 | inactive: 0.724
48 | GGUCUCAAUGCCCAUCAUATT against Sqle | inactive: -1.96
49 | GGCCACAAACAACCUAACATT against Nme6 | inactive: 0.281
50 | GGAGAAUCCGAGGAUAACUTT against Ereg | inactive: -1.34
51 | CCAAUGUGCGAGCAAAGAUTT against Arid5a | inactive: -0.0855
52 | GGCCGACAUAAAGAAAUCATT against Nol7 | inactive: 0.781

Row | Sequence | z-score
53 | GGCCUUGAUCCAAAAGUGGTT against Cyp21a1 | inactive: -0.0284
54 | GGCGGAGUUAAAUUUUCUGTT against Pcdhgb6 | inactive: 1.47
55 | GGGACCUAUUCUGUCACUGTT against ICRFP703B1614Q5.6 | inactive: -0.177
56 | GGUGUAAAUGAGCCUUUUUTT against E230026N22Rik | inactive: -2.89
57 | GGUUGCUUUUCUCUUUGAATT against 4921536K21Rik | inactive: -0.945
58 | GUGGCUUCAGAUCUCUGAATT against Krtap13 | inactive: -0.799
59 | GCUUCUGAAUUCCUACUUGTT against Dtymk | inactive: 0.262
60 | GCUAUGGCCUUCGGUACAUTT against LOC280621 | inactive: 1.07
61 | GGGCCAUGCCAACAUAGUATT against Gabpb1 | inactive: 0.252
62 | CCUGACCAAGCUUGCUUGGTT against Taz | inactive: 1.25
63 | GGUCACCACCAUAGCAAGGTT against 4930583C14Rik | inactive: -0.695
64 | GGAACAGGUAGUUUGGGAATT against Slco6b1 | inactive: -0.872
65 | GGGUAAAGAGCUUCUUCCATT against Ahrr | inactive: -1.01
66 | GGACGAUUCUUUUCUCCAGTT against Surf1 | inactive: 0.882
67 | GGUUAAGGAGAAAUGUGAUTT against A630029F06 | inactive: -0.475
68 | GGGACAUUAAGUGAUUUGUTT against Fbxo30 | inactive: -0.462
69 | GCUUUCAAGUGGUUAUGAATT against 4933414E04Rik | inactive: 0.836
70 | GGCAUAACGAUGGGAAACATT against Insig2 | inactive: -1.65
71 | GGUGUGGAAGUCAGUUUAATT against Serpinb3c | inactive: 0.713
72 | CGGUCCUCAGAACAUAUACTT against D11Bwg0434e | inactive: -0.743
73 | GGAGAAACCUCAGCUAAAGTT against Artn | inactive: 2.19
74 | CGACAAUGCCAUCGAUUCGTT against Sdc3 | inactive: 1.85
75 | GGUAUGGAUGCUUGAGAAATT against 2700091N06Rik | inactive: -0.493
76 | CGAAUCUGGGAUUUAUCCATT against Tparl | inactive: 0.623
77 | GGCCGAAUUAAUUUCUCUGTT against Cd7 | inactive: 1.17
78 | GCACUGAACAGUUGAGAAATT against Zadh2 | inactive: 0.311

Row | Sequence | z-score
79 | GUUGAACAAUCUUGUCCUGTT against Rps25 | inactive: -0.991
80 | GGAAAGGAAAAAAAAGGAATT against Dncic2 | inactive: -0.101
81 | GGUGACAAACUUGAAGACCTT against C330016H24Rik | inactive: 0.0625
82 | GGAAGUAUUGAUCAAGUUGTT against 2810423E13Rik | inactive: 0.809
83 | GCUCAGAGGUGUAUUCAUUTT against C330012H03Rik | inactive: -1.64
84 | GCUGGCCAAACUUGACAGUTT against BC037006 | inactive: -0.976
85 | GCGGUUCGCAUUUGUGAUGTT against Eftud1 | inactive: -0.32
86 | GGCAAUUUUCAGAGAAGUUTT against Fosb | inactive: -0.778
87 | GGACCGUUUACAACUUCUATT against Spg4 | inactive: -0.181
88 | CCUAACUUCAUCCUGUCAUTT against Tex261 | inactive: -0.781
89 | GGUACUGAGGUGAGCCUCUTT against Myocd | inactive: -1.48
90 | CCCAAAUUGAUCCUAGCCUTT against Prkar1b | inactive: 0.519
91 | CGUGCUUAAGAGUCCACUATT against H3f3a | inactive: -1.43
92 | GGAAAACUAGACAGAAAAUTT against D030041N04Rik | inactive: -0.326
93 | CGGAUUGUAAAGAACUGCATT against Sfrp1 | inactive: -0.06
94 | GGAUUUGAGCCUUGUUCCATT against 1200016C12Rik | inactive: -1.68
95 | GCUUUGUUUUAGGACCUUUTT against Rdh1 | inactive: -1.13
96 | GCAACUCAACCUCAACCAUTT against 1810049O03Rik | inactive: 0.466
97 | GGAAUGUGGAUAAAAACGATT against Ncam1 | inactive: 0.679
98 | GCAUCUCUCUAAUAGCCUUTT against D13Wsu177e | inactive: -0.341
99 | GGCUUCAGACAAGCAAUAATT against 1110008K04Rik | inactive: -0.972
100 | GGAAGAGAGUCUGCCUGGUTT against BC016076 | inactive: -1.92
101 | CCCAGACCAAUUCAUCUUATT against Ifngr2 | inactive: -0.0596
102 | GGACUACAUGUUUGAAACCTT against Ugt2a1 | inactive: -1.25
103 | GCGGGCAAUGCCUUAAAAGTT against D16Ertd607e | inactive: 0.194
